Results on 1 molecule are retold here after patent publication US20230240994A1, “MEDICAMENT-CONTAINING HOLLOW PARTICLE” (Sumitomo Pharma Co., Ltd., priority 2012, published 2023).

A short description of the data set: Particle size distribution by laser diffraction particle size analyzer (volume basis). It is filed as physicochemical. Conditions: starting material as used (medicament, polymer, other additive, mixed powder). How it is done: In the present invention, the “average particle size” means cumulative 50% particle size D50 in the volume based measurement of powder particles. Such average particle size is measured by a laser diffraction particle size analyzer (e.g., Particle Viewer manufactured by POWREX CORPORATION, or SALD-3000J manufactured by Shimadzu Corporation, or HELOS&RODOS manufactured by Sympatec GmbH) by volume basis.
The particle size distribution of medicament, polymer, other additive, a mixed powder of the medicament and other additive, and the obtained medicament-containing particle was measured by a laser diffraction particle size analyzer (manufactured by POWREX CORPORATION, Particle Viewer) or laser diffraction particle size analyzer (manufactured by Shimadzu Corporation, SAID-3000J) by volume basis.

For the molecule `CN(C)C(=N)NC(=N)N.Cl` [Compound C, 1,1-dimethylbiguanide monohydrochloride], the “particle size distribution D10” value turned out to be 1.0 μm, the “particle size distribution D50” value is given as 3.2 μm and the “particle size distribution D90” value is listed as 5.2 μm.
